Reference: article PMC3630210
Results are given in words; binding and its absence hold for the method and conditions named. In cells and extracts the contact can be indirect. Some results given as binding are weak or reduced against the parent protein; the word gives no strength.

Protein sequences, listed by entry. Tags and fused reporters are not part of them. Lines headed by an entry give the natural chain unless they say otherwise; changes in a name come on top.
UniProt Q7MWG4: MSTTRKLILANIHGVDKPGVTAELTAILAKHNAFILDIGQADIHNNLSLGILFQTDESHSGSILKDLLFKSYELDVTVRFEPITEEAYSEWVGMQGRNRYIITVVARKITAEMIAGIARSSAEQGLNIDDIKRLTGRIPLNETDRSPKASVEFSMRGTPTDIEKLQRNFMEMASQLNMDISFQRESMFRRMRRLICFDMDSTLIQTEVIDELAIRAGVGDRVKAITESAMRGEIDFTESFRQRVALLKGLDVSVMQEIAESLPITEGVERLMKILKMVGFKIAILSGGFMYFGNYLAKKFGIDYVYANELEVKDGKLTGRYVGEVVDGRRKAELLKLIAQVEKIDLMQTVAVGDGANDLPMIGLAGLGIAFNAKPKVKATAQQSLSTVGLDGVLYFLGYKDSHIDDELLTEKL
UniProt Q04206: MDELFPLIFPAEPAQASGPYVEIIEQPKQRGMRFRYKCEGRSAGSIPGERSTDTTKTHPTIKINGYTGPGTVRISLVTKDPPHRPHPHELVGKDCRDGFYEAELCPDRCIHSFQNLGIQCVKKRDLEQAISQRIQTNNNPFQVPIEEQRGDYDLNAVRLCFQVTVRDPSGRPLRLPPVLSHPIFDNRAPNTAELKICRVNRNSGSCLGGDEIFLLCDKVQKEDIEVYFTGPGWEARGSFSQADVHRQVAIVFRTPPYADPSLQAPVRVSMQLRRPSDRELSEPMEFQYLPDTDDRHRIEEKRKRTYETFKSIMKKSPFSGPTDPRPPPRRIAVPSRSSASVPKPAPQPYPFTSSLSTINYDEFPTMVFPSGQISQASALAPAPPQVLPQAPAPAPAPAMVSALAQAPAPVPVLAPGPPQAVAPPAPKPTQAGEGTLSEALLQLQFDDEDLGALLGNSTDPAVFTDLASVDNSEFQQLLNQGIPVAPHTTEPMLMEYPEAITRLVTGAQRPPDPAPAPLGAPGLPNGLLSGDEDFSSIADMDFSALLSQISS

What was measured:
[1] = target: Myc-SerB (Porphyromonas gingivalis serine phosphatase SerB, full length) (Porphyromonas gingivalis) (UniProt Q7MWG4); test: co-IP; TIGK cells transiently transfected, stimulated with TNF-α (10 ng/ml, 5 min) or left unstimulated; cells cross-linked with 0.25 mM DSP in PBS for 5 min at room temperature; lysates immunoprecipitated with anti-c-Myc agarose; immunoblot
[2] = target: Myc-SerB (Porphyromonas gingivalis serine phosphatase SerB, full length) (Porphyromonas gingivalis) (UniProt Q7MWG4); test: co-IP; TIGK cells transiently expressing Myc or Myc-SerB, no cross-linking reagent; lysates immunoprecipitated with anti-Myc antibody; immunoblot

| Substance | binding [1] | binding [2] |
| --- | --- | --- |
| GFP-NF-κB p65 S536D (from UniProt Q04206 1-551) | binds |  |
| endogenous NF-κB p65 (from UniProt Q04206 1-551) | binds | binds |
